From PubChem BioAssay AID504834 (National Center for Advancing Translational Sciences (NCATS), 2011)
In all, about 320,000 compounds went through this assay and about 22,000 (6.9%) were called active. Inconclusive means that the source gave no clear call. Such entries were picked first, then a sample of the others. The call rests on the fitted dose curve; in most records, active means well fitted inhibition curve with a large enough effect; inconclusive means small, poorly fitted or top-dose-only effect, or another doubt; inactive means no such curve, though single readings can be large or run the other way. A potency beside an inconclusive call is a rough fit, not a confirmed value.
On the % scale 0 is the no-effect control and ±100 the full control effect; potency means the concentration at half of the fitted maximal effect.

Assay: Primary qHTS for delayed death inhibitors of the malarial parasite plastid, 96 hour incubation
Details: P. falciparum luciferase reporter growth; series mostly up to 28.7 µM; activity change, negative = inhibition: at the top concentration
Summary of the method: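 Readout is luminescence from an integrated firefly luciferase in P. falciparum. Red cells, 2% hematocrit and 0.05% parasitemia final, were cultured with compound through two parasite generations (96 hours) at 37 C, 5% CO2.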
For Cc1c(NC(=O)c2ccc(N3CCCC3)c([N+](=O)[O-])c2)cccc1-c1nc2ccccc2s1, the Potency was inconclusive: 1.47 µM [inhibitor, partial curve, poor fit]. For CC(=NCc1ccco1)c1c(O)n(-c2ccc(C)cc2)c(=O)[nH]c1=O, the Potency was inconclusive: 0.415 µM [inhibitor, full curve, poor fit]. In the case of CCc1ccc2c(c1)cc(CN(C(=S)Nc1ccccc1)C1CC1)c1nnnn12, the Potency is reported as inconclusive: 2.62 µM [inhibitor, partial curve]. For O=C(Nc1cc(Cl)ccc1Cl)c1ccco1, the “activity change, negative = inhibition” value was inactive: 2.33%. In the case of COc1ccc2nc(SCC(=O)Nc3ccc4[nH]c(=O)[nH]c4c3)[nH]c2c1, the “activity change, negative = inhibition” value is reported as inactive: -7.72%. For COc1ccc2sc(N(CCCN(C)C)C(=O)c3ccc(S(=O)(=O)N4CCc5ccccc5C4)cc3)nc2c1, the Potency was inconclusive: 18.5 µM [inhibitor, single point]. In the case of CCOC(=O)N1CCN(Cc2nc(-c3ccc(Cl)cc3)no2)CC1, the Potency is reported as inconclusive: 11.7 µM [inhibitor, single point]. In the case of Fc1ccc(CSc2ccc3nnc(-c4ccccn4)n3n2)cc1, the Potency is reported as active: 3.29 µM. With COc1ccc([N+](=O)[O-])cc1NC(=O)c1ccc(N(Cc2ccccc2C)S(C)(=O)=O)cc1 the Potency was inconclusive: 8.28 µM [inhibitor, partial curve]. With CCN(CC)CCN(C(=O)C1=COCCO1)c1nc2c(OC)ccc(OC)c2s1 the “activity change, negative = inhibition” value was inactive: -21.3%. For O=C(NCC(c1cccnc1)N1CCN(c2ccccc2)CC1)Oc1ccccc1 (stereo not given), the Potency was inconclusive: 3.29 µM [inhibitor, full curve, poor fit]. For COc1ccccc1C(=O)NNc1ncc(C)s1, the Potency was inconclusive: 13.1 µM [inhibitor, single point]. For COCCN=C1NN=C(c2ccc(NC(C)=O)cc2)CS1, the Potency was inconclusive: 11.7 µM [inhibitor, single point]. With COc1ccc(-c2nonc2NC(=O)c2ccco2)cc1OC the Potency was inconclusive: 18.5 µM [inhibitor, single point]. In the case of COc1cccc(OC)c1C(=O)Nc1ccccc1C(=O)N1CCCCCC1, the “activity change, negative = inhibition” value is reported as inactive: -4.74%. For CC(C)(C)c1ccc(OCCNC(=O)c2ncn[nH]2)cc1, the Potency was inconclusive: 18.5 µM [inhibitor, single point]. In the case of Fc1ccc(-c2nnc(-c3ccc(F)cc3)o2)cc1, the Potency is reported as inconclusive: 10.4 µM [inhibitor, single point]. For COc1ccc(C)c(S(=O)(=O)Nc2ccc(OCC(=O)O)cc2)c1, the Potency was inconclusive: 7.38 µM [inhibitor, partial curve]. For Nc1ncnc(N2CCc3ccccc32)c1[N+](=O)[O-], the Potency was inconclusive: 0.586 µM [inhibitor, full curve, poor fit]. With COc1ccc(CC(=O)NCC2CCCN(Cc3ccc(OC)cc3F)C2)cc1 (stereo not given) the Potency was active: 9.28 µM. In the case of Cc1ccc(-c2csc(N3CCN(c4ccc5nc(-c6ccncc6)n(CCN6CCCCC6)c5c4)CC3)n2)cc1, the Potency is reported as inconclusive: 2.62 µM [inhibitor, full curve, poor fit]. With COc1cc(/C=C2\CCOC2=O)cc(OC)c1OC the “activity change, negative = inhibition” value was inactive: -17.1%. For Cc1nnn(C23CC4CC(CC(C(=O)NN)(C4)C2)C3)n1, the “activity change, negative = inhibition” value was inactive: -27.6%. With N/C(=N\OC(=O)CCc1ccccc1)c1ccc(Br)cc1 the “activity change, negative = inhibition” value was inactive: 0%. With O=C(O)c1ccccc1SCCS(=O)(=O)c1ccc(Cl)cc1Cl the “activity change, negative = inhibition” value was inactive: -1.26%. In the case of COc1ccc(-c2cccc(NC(=O)COc3ccc(Cl)cc3)c2)nn1, the Potency is reported as inconclusive: 4.15 µM [inhibitor, full curve, poor fit]. With CCc1nnc(NC(=O)CCc2ccc(C)o2)s1 the “activity change, negative = inhibition” value was inactive: -12.3%. In the case of CC/C=C\C/C=C\C/C=C\C/C=C\C/C=C\C/C=C\CCC(=O)O, the Potency is reported as inconclusive: 3.38 µM [inhibitor, partial curve]. With CCC(C(=O)NC1CCCCC1)n1c(SCc2ccc(F)cc2)nc2ccncc21 (stereo not given) the Potency was inconclusive: 8.28 µM [inhibitor, partial curve, poor fit]. In the case of CCC(=O)Nc1cccc(C2=NOC3(C2)C[C@@H](C(N)=O)N(C(=O)c2cc([N+](=O)[O-])cc([N+](=O)[O-])c2)C3)c1 (stereo not given in full), the Potency is reported as inconclusive: 18.5 µM [inhibitor, single point]. In the case of CCOC(=O)C1(Cc2cccc(OC)c2)CCCN(C(=O)c2cc(CC(C)C)[nH]n2)C1 (stereo not given), the Potency is reported as inconclusive: 10.4 µM [inhibitor, single point]. In the case of COc1cc(C2C3C(C)N(C)C(=O)N(C)C3N(C)C(=O)N2C)ccc1O (stereo not given), the Potency is reported as inconclusive: 13.1 µM [inhibitor, single point]. In the case of COc1ccccc1CN(C(=O)c1ccco1)C(C(=O)NC1CCCC1)c1ccncc1 (stereo not given), the Potency is reported as inconclusive: 18.5 µM [inhibitor, single point]. With CNS(=O)(=O)c1ccc(Cl)nc1 the “activity change, negative = inhibition” value was inactive: 7.39%. With CCCCOc1ccc(-c2[nH]ncc2C=O)cc1 the Potency was inconclusive: 18.5 µM [inhibitor, single point]. With O=C(NCCc1nnc2ccc(SCC(=O)N3CCCC3)nn12)c1ccccc1 the “activity change, negative = inhibition” value was inactive: -12.3%. For COc1ccc(OCC(O)CNC(C)c2ccccc2)cc1 (stereo not given), the Potency was inconclusive: 18.5 µM [inhibitor, partial curve, poor fit]. For Cc1ccc(OCCOCCN2CCCCC2)c([N+](=O)[O-])c1, the “activity change, negative = inhibition” value was inactive: -24.3%. In the case of Cc1cc(C(F)(F)F)nn1CC(=O)N1CCCCC1C (stereo not given), the Potency is reported as inconclusive: 18.5 µM [inhibitor, single point]. For Cn1c2ccccc2c2c(C(=O)N3CCN(c4ccc(F)cc4)CC3)cn(C3CCCC3)c(=O)c21, the “activity change, negative = inhibition” value was inactive: 18.6%. In the case of CCCc1nnc(SCC(=O)N(CC)CC)n1CC1CCCO1 (stereo not given), the Potency is reported as inconclusive: 2.33 µM [inhibitor, full curve, poor fit]. For COc1ccccc1N(CC(=O)NCCSCc1ccccc1)S(C)(=O)=O, the Potency was inconclusive: 2.33 µM [inhibitor, full curve]. For COc1ccc(/C=C/C(=O)N(C)C2CCS(=O)(=O)C2)cc1 (stereo not given), the “activity change, negative = inhibition” value was inactive: 2.15%. For CCCCSCCCNC(=O)c1ccc(CS(=O)(=O)c2ccccc2OC)o1, the “activity change, negative = inhibition” value was inactive: -11.8%. In the case of CC(C)c1nnc(NC(=O)CCS(=O)(=O)c2nc(-c3cccs3)cc(C(F)(F)F)n2)s1, the Potency is reported as active: 0.738 µM.
